Some results were stated once for a whole list of compounds, not compound by compound.
System: BCE cells
Test: Bovine capillary endothelial (BCE) cell proliferation assay
Settings: 72 h, TNP-470-equivalent

CO[C@@H]1[C@H](OC(=O)NC(=O)CCl)CC[C@]2(CO2)[C@H]1[C@@]1(C)O[C@@H]1CC=C(C)C [TNP-470]
doses at which cytotoxic: higher than 1 μg/ml

Source: patent US20080248030A1, “Method of Treating Angiogenic Diseases” (Children's Medical Center Corporation, priority 2005, published 2008)
